Values of other authors in patent US20060205826A1, “Method of using carotenoids in the prevention of cognitive decline and for other neuroprotection functions” (priority 2005, published 2006).
At least one structure is not confirmed: it was looked up by name or label, or the drawing left a doubt.

Key:
GPx activity = settings: diabetic animals; Miranda et al., 2004; cited from earlier work
[1] = system: model of chronic alcoholism in rats; settings: Herrera et al., 2003; cited from earlier work
alloxan diabetic mice = settings: diabetic animals; Miranda et al., 2004; cited from earlier work

## O=c1c2ccccc2[se]n1-c1ccccc1 [ebselen, reference compound]
GPx activity
  glutathione peroxidase activity of the retinas: restored
[1]
  impaired neurogenesis: able to prevent this alteration
Alloxan diabetic mice
  b-wave amplitude of the electroretinogram: restored
